Measured data: PubChem BioAssay AID602196 (INSERM, 2012)

Purpose: 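Knock-downs that protect lung cancer cells from cisplatin or sensitise them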
Cells: human A549 lung cancer cells
Knock-down reagent: siRNA pair against human genes
Timing: 48 h transfection before cisplatin; time from cisplatin to read-out not stated
Treatment: cisplatin at a dose killing half of control-siRNA cells; exact dose and duration not given
Measurement: 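Shift in cisplatin death relative to control siRNA, from -50 (all cells die) to +50 (no cells die); siRNAs harmful on their own scored 0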
Scale: two-siRNA summed score (-2 to +2): higher = both siRNAs protect from cisplatin killing; -2 means both sensitise; mean protection from cisplatin (shift in death) and protection from cisplatin (shift in death), siRNA C and protection from cisplatin (shift in death), siRNA D: higher = protection from cisplatin killing
Active means: 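Each siRNA scores 0 if harmful alone by LDH or WST-1, otherwise +1 if it reduces and -1 if it increases cisplatin killing; a gene is active when both siRNAs agree (sum +2 or -2)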
Calls: active = both siRNAs shift cisplatin killing the same way; inactive = no consistent shift, or siRNA harmful alone
The deposit covers about 23,000 reagents; this is a part drawn at random. 455 of them (2%) count as active. 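Active includes both protection and sensitisation; some change values fall well beyond the stated -50 to +50 range.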 Entries without a mark were called inactive. Reagents against one gene are numbered here. Not given: the amount of reagent.

The opening 3 records, to show the layout:
| target | reagent | two-siRNA summed score (-2 to +2) | mean protection from cisplatin (shift in death) (%) | protection from cisplatin (shift in death), siRNA C (%) | protection from cisplatin (shift in death), siRNA D (%) |
| --- | --- | --- | --- | --- | --- |
| PAQR3 | 1 | 0 | 5.9 | -10.5 | 22.3 |
| LOC440153 | 1 | -1 | -2.1 | -11.1 | 6.9 |
| LY6S-AS1 | 1 | 1 | 16.7 | 15.9 | 17.6 |

The list itself, repeating the preview:
| target | reagent | two-siRNA summed score (-2 to +2) | mean protection from cisplatin (shift in death) (%) | protection from cisplatin (shift in death), siRNA C (%) | protection from cisplatin (shift in death), siRNA D (%) |
| --- | --- | --- | --- | --- | --- |
| PAQR3 | 1 | 0 | 5.9 | -10.5 | 22.3 |
| LOC440153 | 1 | -1 | -2.1 | -11.1 | 6.9 |
| LY6S-AS1 | 1 | 1 | 16.7 | 15.9 | 17.6 |
| RAX2 | 1 | 1 | 0.5 | -14.4 | 15.4 |
| MAST4 | 1 | 0 | 3.3 | 5.8 | 0.8 |
| MAST4 | 2 | 1 | 4.8 | 10 | -0.4 |
| TFCP2L1 | 1 | 0 | 3 | -2.4 | 8.4 |
| PCCA | 1 | -1 | -15 | -38.3 | 8.3 |
| DENND6B | 1 | 0 | 10.9 | 15.3 | 6.5 |
| DUSP6 | 1 | 0 | 2.5 | 12.8 | -7.9 |
| HNRNPA2B1 | 1 | 0 | -8.7 | -9.2 | -8.3 |
| OR10C1 | 1 | 0 | 15.5 | 26.5 | 4.5 |
| LOC441319 | 1 | 0 | 10.6 | 8.9 | 12.3 |
| PPP4R3A | 1 | 0 | 13 | 19.6 | 6.4 |
| AGA-DT | 1 | 0 | 20.2 | 12.9 | 27.4 |
| CLDN12 | 1 | 0 | 8.5 | 12 | 5.1 |
| KPNA4 | 1 | 0 | 7.5 | 1.3 | 13.7 |
| NOX1 | 1 | 0 | -8.4 | -15.6 | -1.2 |
| STAP2 | 1 | 0 | 1.6 | 4.7 | -1.4 |
| STAP2 | 2 | 0 | 3.5 | 17.5 | -10.5 |
| LOC387994 | 1 | 1 | 12.8 | 3.3 | 22.2 |
| REXO1 | 1 | -1 | -12.1 | 5.3 | -29.5 |
| ACP7 | 1 | 1 | 15.5 | 5.8 | 25.1 |
| SPATA6L | 1 | 0 | 4 | 5.1 | 2.9 |
| GSDMD | 1 | 0 | 9.5 | 15.8 | 3.2 |
| TIMD4 | 1 | -1 | 2.3 | -13 | 17.6 |
| OAS1 | 1 | 0 | -17.5 | -40.3 | 5.2 |
| PKIB | 1 | 0 | 4.2 | 1.2 | 7.1 |
| FXN | 1 | 1 | 19.8 | 28.3 | 11.4 |
| ATP1B1 | 1 | 1 | 18.6 | 19.3 | 17.8 |
| ZNF484 | 1 | 0 | 11.3 | 16.9 | 5.7 |
| PRR20A | 1 | 0 | 6.6 | 5.1 | 8 |
| SHTN1 | 1 | 0 | 0.1 | 12.6 | -12.4 |
| BYSL | 1 | -1 | -2 | -12.9 | 9 |
| LOC388643 | 1 | 0 | 7.7 | 8.4 | 7 |
| IQCH | 1 | 0 | -3.5 | -5.8 | -1.3 |
| HPDL | 1 | 0 | 9.3 | 11.1 | 7.4 |
| FXYD1 | 1 | 0 | -4.8 | -7.8 | -1.9 |
| MUC12 | 1 | 0 | -2.5 | -6.8 | 1.8 |
